These are yes or no findings as the source states them, for the method shown. Some results given as binding are weak or reduced against the parent protein; the word gives no strength.
Molecular target: high molecular weight melanoma associated antigen (HMW-MAA) (human) (UniProt Q6UVK1)
Assay: competition binding on Minor melanoma cells; competitor biotinylated murine IND-2 IgG

The chains behind the UniProt entries cited, without tags or fusion partners. Residues count along the entry.
UniProt Q6UVK1, residues 30-2322: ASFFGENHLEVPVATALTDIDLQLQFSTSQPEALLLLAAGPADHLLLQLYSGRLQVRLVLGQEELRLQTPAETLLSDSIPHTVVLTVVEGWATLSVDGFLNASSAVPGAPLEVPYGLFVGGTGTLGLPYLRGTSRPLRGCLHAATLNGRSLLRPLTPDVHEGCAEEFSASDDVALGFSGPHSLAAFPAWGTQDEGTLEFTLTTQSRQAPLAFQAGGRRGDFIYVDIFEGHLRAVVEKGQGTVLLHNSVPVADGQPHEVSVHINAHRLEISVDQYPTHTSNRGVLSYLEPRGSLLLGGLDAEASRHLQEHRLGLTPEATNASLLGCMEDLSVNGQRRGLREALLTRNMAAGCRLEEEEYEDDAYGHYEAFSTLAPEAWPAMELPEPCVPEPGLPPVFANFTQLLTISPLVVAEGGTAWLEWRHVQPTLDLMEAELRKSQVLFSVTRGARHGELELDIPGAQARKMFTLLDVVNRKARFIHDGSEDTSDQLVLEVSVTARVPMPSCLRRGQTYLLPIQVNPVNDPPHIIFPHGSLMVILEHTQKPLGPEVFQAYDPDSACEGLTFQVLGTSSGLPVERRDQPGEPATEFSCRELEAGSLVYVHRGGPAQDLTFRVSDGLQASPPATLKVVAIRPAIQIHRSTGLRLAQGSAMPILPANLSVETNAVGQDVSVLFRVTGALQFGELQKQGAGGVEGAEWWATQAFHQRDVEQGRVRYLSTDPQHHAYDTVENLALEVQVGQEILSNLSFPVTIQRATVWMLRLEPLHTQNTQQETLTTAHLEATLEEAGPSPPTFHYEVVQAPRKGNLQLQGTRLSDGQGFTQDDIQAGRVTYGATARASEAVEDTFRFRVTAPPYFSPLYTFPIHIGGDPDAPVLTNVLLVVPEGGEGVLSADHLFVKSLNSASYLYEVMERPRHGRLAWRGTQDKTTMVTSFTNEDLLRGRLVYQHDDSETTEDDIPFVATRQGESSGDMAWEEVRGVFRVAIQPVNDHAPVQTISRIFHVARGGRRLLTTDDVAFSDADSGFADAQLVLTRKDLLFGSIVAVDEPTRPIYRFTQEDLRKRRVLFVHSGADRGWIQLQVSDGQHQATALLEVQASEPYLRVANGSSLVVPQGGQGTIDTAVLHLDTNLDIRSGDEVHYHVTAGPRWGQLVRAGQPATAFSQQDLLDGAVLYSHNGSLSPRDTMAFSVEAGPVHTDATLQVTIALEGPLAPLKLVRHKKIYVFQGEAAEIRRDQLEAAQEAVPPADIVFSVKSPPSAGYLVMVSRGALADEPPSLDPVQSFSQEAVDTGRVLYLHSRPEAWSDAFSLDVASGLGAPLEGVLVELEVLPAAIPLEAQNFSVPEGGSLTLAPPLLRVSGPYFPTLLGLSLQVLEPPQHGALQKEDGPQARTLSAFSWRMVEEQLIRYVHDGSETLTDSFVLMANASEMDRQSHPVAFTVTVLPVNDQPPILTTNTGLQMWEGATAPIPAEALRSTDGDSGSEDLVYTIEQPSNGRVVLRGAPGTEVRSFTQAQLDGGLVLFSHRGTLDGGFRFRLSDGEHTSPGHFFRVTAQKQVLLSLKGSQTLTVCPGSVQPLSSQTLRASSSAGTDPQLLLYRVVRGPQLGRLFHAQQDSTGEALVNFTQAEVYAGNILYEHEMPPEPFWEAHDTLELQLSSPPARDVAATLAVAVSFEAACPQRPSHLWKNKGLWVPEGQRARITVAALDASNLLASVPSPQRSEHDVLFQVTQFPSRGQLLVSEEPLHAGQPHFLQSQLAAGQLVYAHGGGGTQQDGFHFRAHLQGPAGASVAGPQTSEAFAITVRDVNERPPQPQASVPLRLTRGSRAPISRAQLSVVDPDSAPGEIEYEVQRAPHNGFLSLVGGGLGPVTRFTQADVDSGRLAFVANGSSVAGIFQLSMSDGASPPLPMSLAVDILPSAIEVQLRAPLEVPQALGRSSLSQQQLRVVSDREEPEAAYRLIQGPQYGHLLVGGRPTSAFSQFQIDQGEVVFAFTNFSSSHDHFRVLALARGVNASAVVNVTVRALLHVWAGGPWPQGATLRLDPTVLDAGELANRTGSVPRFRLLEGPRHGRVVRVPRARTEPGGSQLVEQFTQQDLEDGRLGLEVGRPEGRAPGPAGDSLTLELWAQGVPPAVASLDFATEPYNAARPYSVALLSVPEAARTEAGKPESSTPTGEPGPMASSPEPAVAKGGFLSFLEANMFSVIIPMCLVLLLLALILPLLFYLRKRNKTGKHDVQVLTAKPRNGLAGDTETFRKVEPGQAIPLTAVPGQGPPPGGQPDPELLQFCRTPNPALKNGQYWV

binding: binds
B1: chimeric IND-2 Fab (Fab, V domains shown)
VH: QIQLVQSGPELKKPGETVKISCKASGYTFTDYSMHWVKKTPGKGLKWLGWINTATGEPTYADDFKGRFAISLETSARTVYLQINNLRNEDTATYFCFSYYDYWGQGTTLTVSS
VL: DILLTQSPAILSVTPGETVSLSCRASQTIYKNLHWYQQKSHRSPRLLIKYGSDSISGIPSRFTGSGSGTDYTLNINSVKPEDEGIYYCLQGYSTPWTFGGGTKLEIKR

From patent publication US20120171226A1
